Data from patent US20260248894A1, “COMBINATION THERAPY FOR PRETERM INFANTS” (Oak Hill Bio Ltd, priority 2022, published 2026).

Chains of the proteins cited; added tags and fusions are not shown. Residues count along the entry.
UniProt P05019, 49-118 limits assumed, stated change not applied: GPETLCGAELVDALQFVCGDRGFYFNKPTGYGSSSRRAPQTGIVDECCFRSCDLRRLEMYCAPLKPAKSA
UniProt P17936, 28-291, stated change not applied: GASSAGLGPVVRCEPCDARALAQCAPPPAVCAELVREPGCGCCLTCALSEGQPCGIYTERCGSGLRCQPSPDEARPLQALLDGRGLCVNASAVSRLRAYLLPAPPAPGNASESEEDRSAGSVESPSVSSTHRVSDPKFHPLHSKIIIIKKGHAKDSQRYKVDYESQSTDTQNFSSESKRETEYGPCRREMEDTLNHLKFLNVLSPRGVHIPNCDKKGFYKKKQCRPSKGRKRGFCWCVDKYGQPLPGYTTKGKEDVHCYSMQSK

Biological target: T1, rhIGF-1/rhIGFBP-3 drug product (Homo sapiens, UniProt P05019+P17936, DEL119-195)
T1 construct: purchased Takeda, Lexington, MA, USA
Assay: In vitro physical compatibility of test medications mixed with rhIGF-1/rhIGFBP-3 (visual observation, OD320, pH, osmolality)
Assay type: physicochemical
Parameters: key to Physical compatibility: Yes: Test medications were considered physically compatible with rhIGF-1/rhIGFBP-3 if there was no observed change in color, precipitation, turbidity, or gas evolution, or if there was no clinically relevant change in osmolality or pH

CN1CC[C@]23c4c5ccc(O)c4O[C@H]2[C@@H](O)C=C[C@H]3[C@H]1C5.O=S(=O)(O)O [Morphine sulfate]
Physical compatibility: Yes
physical compatibility with rhIGF-1/rhIGFBP-3: physical compatibility was established
